# For at least one compound, name, drawing or mass did not settle the structure.
# Key:
# [1] = test system: LLC cells; type: in vivo, mice; conditions: U400 1×10^7 PFU intratumoral Day 10, 12, 14; rhein 50 mg/kg intraperitoneal Day 10, 13, 16
# [2] = test system: metastatic lung cancer; type: in vivo, mice; conditions: metastatic lung cancer mouse model
structure (smiles),measurement,setting,value
O=C(O)c1cc(O)c2c(c1)C(=O)c1cccc(O)c1C2=O [rhein],therapeutic effects on tumor,[1],certain therapeutic effects
same,complete remission (share of mice),[2],none

# Source: patent US20220296659A1, “PHARMACEUTICAL COMPOSITION FOR TREATMENT OF TUMOR OR CANCER, AND APPLICATION THEREOF” (FANTASIA BIOPHARMA (ZHEJIANG) CO. LTD, priority 2019, published 2022)
